PMC7500022

Amino acid sequences for entries named in this document (tags omitted).
UniProt P07356: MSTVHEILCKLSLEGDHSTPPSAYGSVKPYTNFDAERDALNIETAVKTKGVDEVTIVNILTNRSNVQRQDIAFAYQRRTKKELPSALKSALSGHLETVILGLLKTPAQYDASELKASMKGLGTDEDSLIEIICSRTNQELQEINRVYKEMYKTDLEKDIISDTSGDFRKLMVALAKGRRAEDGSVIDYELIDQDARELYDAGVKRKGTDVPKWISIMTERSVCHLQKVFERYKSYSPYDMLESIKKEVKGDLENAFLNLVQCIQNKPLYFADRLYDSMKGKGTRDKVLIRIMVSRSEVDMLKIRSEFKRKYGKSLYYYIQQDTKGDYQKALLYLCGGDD

Target: T1, Flag-tagged FOXQ1 protein (Forkhead box Q1) (UniProt O70220)
T1 sequence: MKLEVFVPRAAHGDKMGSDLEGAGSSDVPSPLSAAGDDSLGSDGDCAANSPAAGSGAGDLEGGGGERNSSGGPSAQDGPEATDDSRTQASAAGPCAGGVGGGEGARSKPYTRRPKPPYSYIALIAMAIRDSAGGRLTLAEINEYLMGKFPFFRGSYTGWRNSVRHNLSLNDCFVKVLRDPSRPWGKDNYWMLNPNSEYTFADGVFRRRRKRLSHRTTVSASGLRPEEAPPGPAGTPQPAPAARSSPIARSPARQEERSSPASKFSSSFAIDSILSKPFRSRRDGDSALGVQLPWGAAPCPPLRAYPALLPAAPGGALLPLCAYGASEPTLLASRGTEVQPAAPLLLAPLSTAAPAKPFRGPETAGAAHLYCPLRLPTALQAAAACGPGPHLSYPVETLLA
Assay: affinity purification with mass spectrometry; anti-FLAG antibody coupled to resin (Pierce co-IP kit), incubated overnight at 4 °C with 200 μL total protein lysate of mBMSCs (Foxq1-over and lv5) transfected with Flag-tagged Foxq1; eluate analysed by LC-MS (TripleTOF 5600-Plus, ProteinPilot)

binding: binds
Substance: Annexin A2 (ANXA2) (from UniProt P07356 1-339)

These are yes or no findings as the source states them, for the method shown. In cells and extracts the contact can be indirect. Here binding means that the protein was enriched with, or labelled near, the bait; the list need not be complete. Tags and fused reporters may be left off the sequences shown.
